Test results published in ChEMBL document CHEMBL3745658, “An Orally Bioavailable, Indole-3-glyoxylamide Based Series of Tubulin Polymerization Inhibitors Showing Tumor Growth Inhibition in a Mouse Xenograft Model of Head and Neck Cancer” (J Med Chem, 2015).
Converted amounts (≈) assume the structure as drawn.

Tests used:
[1] = Solubility in 2% DMSO containing 50 mM potassium phosphate buffer solution at pH 7.4 by dynamic light scattering method
[2] = Aqueous solubility of the compound by UV-HPLC; details: buffer

COCCn1cc(C(=O)C(=O)Nc2ccc(OC)nc2)c2ccccc21
solubility kinetic [1]: 80 µM (≈ 28.3 µg/mL) | solubility [2]: 10 µM (≈ 3.53 µg/mL)
